Results reported in the supplement of paper PMC12823440, “Inhibitors supercharge kinase turnover through native proteolytic circuits” (Nature, 2025).
Structures can show the parent of a compound that is named as a salt. This is one part of the list. The calls rarely recur for the same compound in another form.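 Kinases, fused to nanoluciferase, were expressed in K562 cells; luminescence was measured every 4 h from 2 to 18 h as percent of control (DMSO = 100%, positive control = 0%). A time point is decreased if signal falls significantly (2 sigma). Hits were called by the authors by a rule that is not shown; the count of time points alone does not decide it.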

The chains behind the UniProt entries cited, without tags or fusion partners. Where a name states a change or a piece, a line headed by the entry shows the natural chain unless it says otherwise.
UniProt P29317, whole entry: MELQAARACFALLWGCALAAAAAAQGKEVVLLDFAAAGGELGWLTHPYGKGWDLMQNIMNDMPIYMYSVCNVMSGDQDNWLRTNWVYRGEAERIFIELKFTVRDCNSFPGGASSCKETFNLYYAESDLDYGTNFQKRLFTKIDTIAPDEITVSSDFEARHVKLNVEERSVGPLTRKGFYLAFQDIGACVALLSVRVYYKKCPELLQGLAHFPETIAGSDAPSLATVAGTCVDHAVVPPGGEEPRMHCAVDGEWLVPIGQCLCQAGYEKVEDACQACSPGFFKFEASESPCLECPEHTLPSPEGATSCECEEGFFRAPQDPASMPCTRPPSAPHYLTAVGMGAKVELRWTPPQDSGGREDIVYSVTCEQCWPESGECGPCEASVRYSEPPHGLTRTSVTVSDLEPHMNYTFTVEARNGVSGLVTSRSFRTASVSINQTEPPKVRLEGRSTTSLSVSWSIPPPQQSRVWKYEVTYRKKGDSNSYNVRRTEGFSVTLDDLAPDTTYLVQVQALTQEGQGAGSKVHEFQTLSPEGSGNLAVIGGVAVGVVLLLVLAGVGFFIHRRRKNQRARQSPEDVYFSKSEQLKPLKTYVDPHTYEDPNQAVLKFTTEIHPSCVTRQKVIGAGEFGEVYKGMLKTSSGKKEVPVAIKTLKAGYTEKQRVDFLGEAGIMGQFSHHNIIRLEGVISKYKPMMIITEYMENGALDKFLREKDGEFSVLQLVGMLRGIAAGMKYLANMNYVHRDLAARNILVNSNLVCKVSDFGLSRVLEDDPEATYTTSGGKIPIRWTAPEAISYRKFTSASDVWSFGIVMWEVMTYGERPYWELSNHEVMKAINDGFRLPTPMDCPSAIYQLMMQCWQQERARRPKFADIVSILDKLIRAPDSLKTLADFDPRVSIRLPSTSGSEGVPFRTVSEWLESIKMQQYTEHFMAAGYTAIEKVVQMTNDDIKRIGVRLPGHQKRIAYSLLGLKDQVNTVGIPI
UniProt P21860, whole entry: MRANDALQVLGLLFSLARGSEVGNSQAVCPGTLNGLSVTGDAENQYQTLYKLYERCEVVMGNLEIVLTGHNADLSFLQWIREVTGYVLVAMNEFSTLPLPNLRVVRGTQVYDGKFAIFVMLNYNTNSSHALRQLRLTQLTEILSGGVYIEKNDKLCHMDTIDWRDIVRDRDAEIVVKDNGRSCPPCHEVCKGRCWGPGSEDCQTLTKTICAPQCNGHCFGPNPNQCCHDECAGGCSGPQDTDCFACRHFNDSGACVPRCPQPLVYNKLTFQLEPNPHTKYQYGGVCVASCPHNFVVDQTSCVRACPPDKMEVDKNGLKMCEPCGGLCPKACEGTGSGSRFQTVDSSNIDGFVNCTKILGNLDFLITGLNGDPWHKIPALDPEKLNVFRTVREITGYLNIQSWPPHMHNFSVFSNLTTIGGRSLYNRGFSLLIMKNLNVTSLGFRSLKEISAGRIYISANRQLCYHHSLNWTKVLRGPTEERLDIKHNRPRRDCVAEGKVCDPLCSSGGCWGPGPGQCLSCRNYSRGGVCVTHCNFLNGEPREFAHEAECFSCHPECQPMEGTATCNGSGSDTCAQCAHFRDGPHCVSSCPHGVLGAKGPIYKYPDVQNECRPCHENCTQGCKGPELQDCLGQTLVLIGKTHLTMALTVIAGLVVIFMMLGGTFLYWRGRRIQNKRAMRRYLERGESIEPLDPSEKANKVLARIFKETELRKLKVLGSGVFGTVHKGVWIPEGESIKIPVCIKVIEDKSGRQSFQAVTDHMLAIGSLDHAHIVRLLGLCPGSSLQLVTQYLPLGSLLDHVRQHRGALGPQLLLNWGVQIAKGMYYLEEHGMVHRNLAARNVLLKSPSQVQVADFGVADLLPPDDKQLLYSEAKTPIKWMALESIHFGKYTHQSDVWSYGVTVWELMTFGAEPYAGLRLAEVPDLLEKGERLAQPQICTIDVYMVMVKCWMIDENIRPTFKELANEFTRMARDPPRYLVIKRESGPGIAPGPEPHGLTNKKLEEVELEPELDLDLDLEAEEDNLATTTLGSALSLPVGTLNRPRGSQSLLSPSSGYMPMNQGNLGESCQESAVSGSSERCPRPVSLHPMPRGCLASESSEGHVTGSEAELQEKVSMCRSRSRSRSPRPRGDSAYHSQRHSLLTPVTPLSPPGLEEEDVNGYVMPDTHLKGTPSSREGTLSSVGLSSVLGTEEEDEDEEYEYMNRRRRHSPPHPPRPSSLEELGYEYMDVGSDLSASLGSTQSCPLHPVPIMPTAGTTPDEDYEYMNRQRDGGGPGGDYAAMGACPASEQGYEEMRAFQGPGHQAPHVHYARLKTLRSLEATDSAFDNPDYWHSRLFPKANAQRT
UniProt Q15303, whole entry R711C: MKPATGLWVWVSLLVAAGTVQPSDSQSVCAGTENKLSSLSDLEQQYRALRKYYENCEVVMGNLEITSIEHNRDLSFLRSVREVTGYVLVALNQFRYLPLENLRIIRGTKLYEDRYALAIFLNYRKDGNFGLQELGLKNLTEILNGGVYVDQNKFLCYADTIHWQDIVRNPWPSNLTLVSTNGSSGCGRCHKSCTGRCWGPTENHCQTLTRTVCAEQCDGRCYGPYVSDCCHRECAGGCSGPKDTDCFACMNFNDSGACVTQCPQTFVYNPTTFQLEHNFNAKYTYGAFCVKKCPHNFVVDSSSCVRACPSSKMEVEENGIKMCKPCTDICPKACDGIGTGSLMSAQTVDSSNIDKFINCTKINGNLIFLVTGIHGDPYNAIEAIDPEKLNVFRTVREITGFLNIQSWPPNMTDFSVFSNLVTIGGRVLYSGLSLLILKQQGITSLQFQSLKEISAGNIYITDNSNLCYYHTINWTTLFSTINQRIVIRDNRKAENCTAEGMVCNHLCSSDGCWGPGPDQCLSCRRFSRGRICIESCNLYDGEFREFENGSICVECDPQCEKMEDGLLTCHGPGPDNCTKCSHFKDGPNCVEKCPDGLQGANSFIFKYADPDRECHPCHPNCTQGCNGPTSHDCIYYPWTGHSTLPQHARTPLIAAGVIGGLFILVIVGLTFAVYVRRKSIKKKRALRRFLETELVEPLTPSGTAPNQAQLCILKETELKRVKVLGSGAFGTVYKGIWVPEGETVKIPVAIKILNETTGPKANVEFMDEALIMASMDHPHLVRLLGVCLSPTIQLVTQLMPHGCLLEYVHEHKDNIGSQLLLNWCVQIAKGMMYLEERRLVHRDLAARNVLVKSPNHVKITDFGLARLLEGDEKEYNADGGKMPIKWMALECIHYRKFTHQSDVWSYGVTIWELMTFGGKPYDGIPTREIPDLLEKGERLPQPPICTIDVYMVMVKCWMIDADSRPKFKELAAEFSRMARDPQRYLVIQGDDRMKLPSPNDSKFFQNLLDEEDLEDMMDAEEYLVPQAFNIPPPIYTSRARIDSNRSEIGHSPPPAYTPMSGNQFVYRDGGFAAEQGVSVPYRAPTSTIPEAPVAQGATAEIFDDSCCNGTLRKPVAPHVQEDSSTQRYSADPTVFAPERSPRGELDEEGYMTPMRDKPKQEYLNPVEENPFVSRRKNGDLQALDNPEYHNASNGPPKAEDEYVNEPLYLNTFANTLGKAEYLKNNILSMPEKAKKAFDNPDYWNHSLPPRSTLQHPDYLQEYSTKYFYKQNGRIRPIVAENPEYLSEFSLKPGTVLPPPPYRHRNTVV
UniProt O75460: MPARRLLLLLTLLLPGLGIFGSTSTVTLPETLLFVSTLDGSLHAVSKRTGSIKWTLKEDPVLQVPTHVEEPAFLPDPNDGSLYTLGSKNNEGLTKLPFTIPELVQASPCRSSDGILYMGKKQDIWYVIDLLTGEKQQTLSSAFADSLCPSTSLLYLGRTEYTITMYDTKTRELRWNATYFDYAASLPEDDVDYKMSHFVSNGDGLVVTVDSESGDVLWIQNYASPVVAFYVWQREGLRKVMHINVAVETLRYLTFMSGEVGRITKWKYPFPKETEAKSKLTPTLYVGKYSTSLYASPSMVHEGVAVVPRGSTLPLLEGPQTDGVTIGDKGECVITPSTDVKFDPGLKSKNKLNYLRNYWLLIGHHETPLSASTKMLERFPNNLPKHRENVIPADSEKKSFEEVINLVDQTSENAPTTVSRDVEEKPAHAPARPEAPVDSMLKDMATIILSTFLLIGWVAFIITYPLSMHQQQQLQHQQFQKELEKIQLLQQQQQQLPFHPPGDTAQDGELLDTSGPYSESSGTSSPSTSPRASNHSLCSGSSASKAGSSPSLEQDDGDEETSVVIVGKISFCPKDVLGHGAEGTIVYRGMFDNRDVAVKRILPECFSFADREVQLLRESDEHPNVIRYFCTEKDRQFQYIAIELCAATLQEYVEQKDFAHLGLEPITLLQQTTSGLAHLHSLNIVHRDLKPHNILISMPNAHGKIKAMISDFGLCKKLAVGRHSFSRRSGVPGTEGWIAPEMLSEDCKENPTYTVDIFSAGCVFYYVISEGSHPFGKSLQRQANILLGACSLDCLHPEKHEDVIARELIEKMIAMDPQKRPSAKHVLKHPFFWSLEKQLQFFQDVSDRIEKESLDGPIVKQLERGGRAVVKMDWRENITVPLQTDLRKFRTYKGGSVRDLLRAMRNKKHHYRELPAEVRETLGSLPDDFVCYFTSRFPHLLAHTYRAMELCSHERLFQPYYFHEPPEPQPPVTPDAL
UniProt P21802, whole entry, looked up: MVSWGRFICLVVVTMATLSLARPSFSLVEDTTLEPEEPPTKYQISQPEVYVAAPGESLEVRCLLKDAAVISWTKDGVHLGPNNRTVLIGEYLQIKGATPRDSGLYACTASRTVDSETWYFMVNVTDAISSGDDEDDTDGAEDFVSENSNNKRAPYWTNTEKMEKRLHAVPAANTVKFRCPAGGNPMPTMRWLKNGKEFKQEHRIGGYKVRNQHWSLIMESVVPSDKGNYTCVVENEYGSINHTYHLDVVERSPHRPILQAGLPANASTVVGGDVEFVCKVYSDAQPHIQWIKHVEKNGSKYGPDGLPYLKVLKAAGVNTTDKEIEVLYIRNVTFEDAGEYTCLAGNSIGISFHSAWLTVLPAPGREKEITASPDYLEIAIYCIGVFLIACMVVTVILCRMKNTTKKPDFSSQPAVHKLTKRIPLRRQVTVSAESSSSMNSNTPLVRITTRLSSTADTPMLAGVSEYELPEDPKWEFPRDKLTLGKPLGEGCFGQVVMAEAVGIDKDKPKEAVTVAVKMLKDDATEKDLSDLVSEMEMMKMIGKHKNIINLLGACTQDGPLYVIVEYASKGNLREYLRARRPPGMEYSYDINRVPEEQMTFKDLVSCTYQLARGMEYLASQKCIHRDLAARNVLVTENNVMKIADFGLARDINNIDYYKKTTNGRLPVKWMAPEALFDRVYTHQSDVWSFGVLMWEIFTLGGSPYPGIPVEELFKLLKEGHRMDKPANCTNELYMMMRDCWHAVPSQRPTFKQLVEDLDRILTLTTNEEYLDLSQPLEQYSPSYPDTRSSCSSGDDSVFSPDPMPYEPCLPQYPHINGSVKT
UniProt P22607, whole entry, looked up: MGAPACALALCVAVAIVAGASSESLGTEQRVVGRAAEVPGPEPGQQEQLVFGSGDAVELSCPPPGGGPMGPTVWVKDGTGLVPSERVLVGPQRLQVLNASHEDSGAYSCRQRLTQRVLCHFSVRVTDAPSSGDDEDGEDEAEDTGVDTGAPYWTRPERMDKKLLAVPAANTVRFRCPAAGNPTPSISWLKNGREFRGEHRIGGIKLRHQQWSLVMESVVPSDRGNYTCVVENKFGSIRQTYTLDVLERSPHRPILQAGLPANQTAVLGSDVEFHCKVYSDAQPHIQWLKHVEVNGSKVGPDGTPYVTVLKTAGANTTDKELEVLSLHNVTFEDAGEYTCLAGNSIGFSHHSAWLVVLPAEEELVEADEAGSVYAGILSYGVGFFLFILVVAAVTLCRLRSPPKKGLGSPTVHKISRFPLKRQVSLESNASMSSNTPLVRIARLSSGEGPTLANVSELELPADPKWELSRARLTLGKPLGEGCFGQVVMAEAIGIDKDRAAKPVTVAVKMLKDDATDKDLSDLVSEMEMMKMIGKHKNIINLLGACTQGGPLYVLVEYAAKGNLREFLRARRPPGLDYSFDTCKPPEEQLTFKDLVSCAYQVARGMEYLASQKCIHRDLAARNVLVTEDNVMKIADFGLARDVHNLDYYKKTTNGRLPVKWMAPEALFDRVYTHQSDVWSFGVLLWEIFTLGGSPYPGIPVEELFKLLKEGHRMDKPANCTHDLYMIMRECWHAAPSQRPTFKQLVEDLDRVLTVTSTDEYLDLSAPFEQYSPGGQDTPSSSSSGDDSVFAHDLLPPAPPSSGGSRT

Legend:
Experiment in all cases: number of time points (of 5) at which kinase-Nluc abundance scored as decreased, DMSO-normalised (count); higher = more persistent destabilization
Conditions in all cases: K562; 2-18 h
EGFR_L861Q = EGFR_L861Q (UniProt P00533)
EGFR_T790M = EGFR_T790M (UniProt P00533)
EPHA2 = EPHA2 (UniProt P29317)
ERBB3 = ERBB3 (UniProt P21860)
[1] = target: ERBB4_R711C (clone: ERBB4_mut) (UniProt Q15303)
ERN1 = ERN1 (UniProt O75460)
FGFR1 = FGFR1 (UniProt P11362)
FGFR2 = FGFR2 (UniProt P21802)
FGFR3 = FGFR3 (UniProt P22607)
FGR = FGR (UniProt P09769)

With `CNC(=O)c1nnc(NC(=O)C2CC2)cc1Nc1cccc(-c2ncn(C)n2)c1OC` [Deucravacitinib] (10 µM) the “number of time points” value (EGFR_L861Q) was 0, the “number of time points” value (EGFR_T790M) was 0 and the “number of time points” value (EPHA2) was 0. The “number of time points” value (ERBB3) was 1, the “number of time points” value [1] was 0 and the “number of time points” value (ERN1) was 0. The “number of time points” value (FGFR1) was 0, the “number of time points” value (FGFR2) was 0 and the “number of time points” value (FGFR3) was 0. For the same compound, the “number of time points” value (FGR) was 0.

For `CCn1c2ccccc2c2cc(Nc3ccnc(NCCCN4CCOCC4)n3)ccc21` (2.5 µM), the “number of time points” value (EGFR_L861Q) was 0, the “number of time points” value (EGFR_T790M) was 0 and the “number of time points” value (EPHA2) was 0. For the same compound, the “number of time points” value (ERBB3) was 0, the “number of time points” value [1] was 0 and the “number of time points” value (ERN1) was 0. For the same compound, the “number of time points” value (FGFR1) was 0, the “number of time points” value (FGFR2) was 0 and the “number of time points” value (FGFR3) was 0. For the same compound, the “number of time points” value (FGR) was 0.

`CNS(=O)(=O)Nc1nccc(Cc2c(C)c3ccc(Oc4ncccn4)cc3oc2=O)c1F` (10 µM) was tested, and the “number of time points” value (EGFR_L861Q) was 3, the “number of time points” value (EGFR_T790M) was 1 and the “number of time points” value (EPHA2) was 0. For the same compound, the “number of time points” value (ERBB3) was 3, the “number of time points” value [1] was 1 and the “number of time points” value (ERN1) was 0. For the same compound, the “number of time points” value (FGFR1) was 0, the “number of time points” value (FGFR2) was 2 and the “number of time points” value (FGFR3) was 0. The “number of time points” value (FGR) was 0.

`CN(c1ccc(C(F)(F)F)cc1)S(=O)(=O)c1ccc(C(=O)Nc2nc(-c3ccccn3)cs2)cc1` (2.5 µM) was tested, and the “number of time points” value (EGFR_L861Q) was 0, the “number of time points” value (EGFR_T790M) was 0 and the “number of time points” value (EPHA2) was 0. For the same compound, the “number of time points” value (ERBB3) was 0, the “number of time points” value [1] was 0 and the “number of time points” value (ERN1) was 0. For the same compound, the “number of time points” value (FGFR1) was 0, the “number of time points” value (FGFR2) was 0 and the “number of time points” value (FGFR3) was 0. For the same compound, the “number of time points” value (FGR) was 0.

`C=CC(=O)N1CCN(c2nc(OC[C@@H]3CCCN3C)nc3c2CCN(c2cccc4cccc(C)c24)C3)C[C@@H]1CC#N` (2.5 µM) was tested, and the “number of time points” value (EGFR_L861Q) was 0, the “number of time points” value (EGFR_T790M) was 0 and the “number of time points” value (EPHA2) was 0. For the same compound, the “number of time points” value (ERBB3) was 0, the “number of time points” value [1] was 0 and the “number of time points” value (ERN1) was 0. The “number of time points” value (FGFR1) was 0, the “number of time points” value (FGFR2) was 0 and the “number of time points” value (FGFR3) was 0. For the same compound, the “number of time points” value (FGR) was 0.

In the case of `CC(C)[C@H](CO)Nc1nc(Nc2ccc(C(=O)O)c(Cl)c2)c2ncn(C(C)C)c2n1` [Purvalanol B] (10 µM), the “number of time points” value (EGFR_L861Q) is reported as 0, the “number of time points” value (EGFR_T790M) is reported as 0 and the “number of time points” value (EPHA2) is reported as 0. For the same compound, the “number of time points” value (ERBB3) was 0, the “number of time points” value [1] was 0 and the “number of time points” value (ERN1) was 0. The “number of time points” value (FGFR1) was 0, the “number of time points” value (FGFR2) was 0 and the “number of time points” value (FGFR3) was 0. For the same compound, the “number of time points” value (FGR) was 0.

In the case of `CN1CCN(c2ccc(NC(=O)c3ccc(C#N)o3)c(N3CCCCC3)c2)CC1` (10 µM), the “number of time points” value (EGFR_L861Q) is reported as 0, the “number of time points” value (EGFR_T790M) is reported as 0 and the “number of time points” value (EPHA2) is reported as 0. For the same compound, the “number of time points” value (ERBB3) was 0, the “number of time points” value [1] was 0 and the “number of time points” value (ERN1) was 0. The “number of time points” value (FGFR1) was 0, the “number of time points” value (FGFR2) was 0 and the “number of time points” value (FGFR3) was 0. For the same compound, the “number of time points” value (FGR) was 0.

With `C=CC(=O)N[C@H]1CCOC[C@H]1Nc1ncc2cc(-c3c(Cl)c(OC)cc(OC)c3Cl)ccc2n1` [Fisogatinib] (10 µM) the “number of time points” value (EGFR_L861Q) was 0, the “number of time points” value (EGFR_T790M) was 0 and the “number of time points” value (EPHA2) was 0. For the same compound, the “number of time points” value (ERBB3) was 0, the “number of time points” value [1] was 0 and the “number of time points” value (ERN1) was 0. The “number of time points” value (FGFR1) was 0, the “number of time points” value (FGFR2) was 0 and the “number of time points” value (FGFR3) was 0. The “number of time points” value (FGR) was 0.

For `O=c1cc(N2CCOCC2)oc2c1ccc1ccccc12` (2 µM), the “number of time points” value (EGFR_L861Q) was 0, the “number of time points” value (EGFR_T790M) was 0 and the “number of time points” value (EPHA2) was 0. For the same compound, the “number of time points” value (ERBB3) was 0, the “number of time points” value [1] was 0 and the “number of time points” value (ERN1) was 0. The “number of time points” value (FGFR1) was 0, the “number of time points” value (FGFR2) was 0 and the “number of time points” value (FGFR3) was 0. For the same compound, the “number of time points” value (FGR) was 0.

`COC(=O)/C=C/c1ccc(O)c(OC)c1` [Ferulic acid methyl ester] (10 µM) was tested, and the “number of time points” value (EGFR_L861Q) was 0, the “number of time points” value (EGFR_T790M) was 0 and the “number of time points” value (EPHA2) was 0. The “number of time points” value (ERBB3) was 0, the “number of time points” value [1] was 0 and the “number of time points” value (ERN1) was 0. The “number of time points” value (FGFR1) was 0, the “number of time points” value (FGFR2) was 0 and the “number of time points” value (FGFR3) was 0. For the same compound, the “number of time points” value (FGR) was 0.

In the case of `C=CC(=O)Nc1cccc(Oc2nc(Nc3ccc(N4CCN(C)CC4)cc3)ncc2Cl)c1` (2.5 µM), the “number of time points” value (EGFR_L861Q) is reported as 0, the “number of time points” value (EGFR_T790M) is reported as 0 and the “number of time points” value (EPHA2) is reported as 0. For the same compound, the “number of time points” value (ERBB3) was 0, the “number of time points” value [1] was 0 and the “number of time points” value (ERN1) was 0. The “number of time points” value (FGFR1) was 0, the “number of time points” value (FGFR2) was 0 and the “number of time points” value (FGFR3) was 0. For the same compound, the “number of time points” value (FGR) was 0.

In the case of `CCOc1cc(C(=O)N2CCC(N3CCN(C)CC3)CC2)ccc1Nc1ncc2c(n1)N(S(C)(=O)=O)c1ccccc1C(=O)N2C` (10 µM), the “number of time points” value (EGFR_L861Q) is reported as 0, the “number of time points” value (EGFR_T790M) is reported as 0 and the “number of time points” value (EPHA2) is reported as 0. The “number of time points” value (ERBB3) was 0, the “number of time points” value [1] was 0 and the “number of time points” value (ERN1) was 0. For the same compound, the “number of time points” value (FGFR1) was 0, the “number of time points” value (FGFR2) was 0 and the “number of time points” value (FGFR3) was 0. The “number of time points” value (FGR) was 0.

For `Cc1cccc(Cn2nc(C)c3c(NC(=O)c4csc5c(N)ncnc45)cccc32)n1` (10 µM), the “number of time points” value (EGFR_L861Q) was 0, the “number of time points” value (EGFR_T790M) was 0 and the “number of time points” value (EPHA2) was 0. The “number of time points” value (ERBB3) was 0, the “number of time points” value [1] was 0 and the “number of time points” value (ERN1) was 0. For the same compound, the “number of time points” value (FGFR1) was 0, the “number of time points” value (FGFR2) was 0 and the “number of time points” value (FGFR3) was 0. The “number of time points” value (FGR) was 0.

With `Clc1ccc(Nc2cccc(-c3cn[nH]c3)c2)cc1` (10 µM) the “number of time points” value (EGFR_L861Q) was 0, the “number of time points” value (EGFR_T790M) was 0 and the “number of time points” value (EPHA2) was 0. The “number of time points” value (ERBB3) was 0, the “number of time points” value [1] was 0 and the “number of time points” value (ERN1) was 0. The “number of time points” value (FGFR1) was 0, the “number of time points” value (FGFR2) was 0 and the “number of time points” value (FGFR3) was 0. For the same compound, the “number of time points” value (FGR) was 0.

In the case of `CCCCNc1ncc2c(-c3ccc(CN4CCN(C)CC4)cc3)cn([C@H]3CC[C@H](O)CC3)c2n1` [UNC2025 (hydrochloride)] (2.5 µM), the “number of time points” value (EGFR_L861Q) is reported as 2, the “number of time points” value (EGFR_T790M) is reported as 0 and the “number of time points” value (EPHA2) is reported as 0. For the same compound, the “number of time points” value (ERBB3) was 0, the “number of time points” value [1] was 0 and the “number of time points” value (ERN1) was 0. For the same compound, the “number of time points” value (FGFR1) was 0, the “number of time points” value (FGFR2) was 1 and the “number of time points” value (FGFR3) was 0. The “number of time points” value (FGR) was 0.

With `Cc1ccc(-c2csc(Cn3nc(CC4OCCCO4)c4ccccc4c3=O)n2)cc1` (10 µM) the “number of time points” value (EGFR_L861Q) was 0, the “number of time points” value (EGFR_T790M) was 0 and the “number of time points” value (EPHA2) was 0. For the same compound, the “number of time points” value (ERBB3) was 0, the “number of time points” value [1] was 0 and the “number of time points” value (ERN1) was 0. The “number of time points” value (FGFR1) was 1, the “number of time points” value (FGFR2) was 0 and the “number of time points” value (FGFR3) was 0. The “number of time points” value (FGR) was 0.

In the case of `Cc1occ2c1C(=O)c1c(O)ccc(O)c1C2` (2.5 µM), the “number of time points” value (EGFR_L861Q) is reported as 0, the “number of time points” value (EGFR_T790M) is reported as 0 and the “number of time points” value (EPHA2) is reported as 0. For the same compound, the “number of time points” value (ERBB3) was 0, the “number of time points” value [1] was 0 and the “number of time points” value (ERN1) was 0. The “number of time points” value (FGFR1) was 0, the “number of time points” value (FGFR2) was 0 and the “number of time points” value (FGFR3) was 0. The “number of time points” value (FGR) was 0.

With `COC[C@H]1Cn2cc(-c3nc(Nc4ccnn4C)ncc3C)nc2C(=O)N1Cc1ccc(F)c(F)c1` (10 µM) the “number of time points” value (EGFR_L861Q) was 0, the “number of time points” value (EGFR_T790M) was 0 and the “number of time points” value (EPHA2) was 0. For the same compound, the “number of time points” value (ERBB3) was 0, the “number of time points” value [1] was 0 and the “number of time points” value (ERN1) was 0. The “number of time points” value (FGFR1) was 0, the “number of time points” value (FGFR2) was 0 and the “number of time points” value (FGFR3) was 0. The “number of time points” value (FGR) was 0.
